Source: PMC5496436
No constants are given. Whether binding was seen depends on the method and setting. In cells and extracts the contact can be indirect. A result given as binding can be weak or reduced; the word gives no strength.

Protein sequences, listed by entry. Tags and fused reporters are not part of them. Lines headed by an entry give the natural chain unless they say otherwise; changes in a name come on top.
UniProt Q9C0C9: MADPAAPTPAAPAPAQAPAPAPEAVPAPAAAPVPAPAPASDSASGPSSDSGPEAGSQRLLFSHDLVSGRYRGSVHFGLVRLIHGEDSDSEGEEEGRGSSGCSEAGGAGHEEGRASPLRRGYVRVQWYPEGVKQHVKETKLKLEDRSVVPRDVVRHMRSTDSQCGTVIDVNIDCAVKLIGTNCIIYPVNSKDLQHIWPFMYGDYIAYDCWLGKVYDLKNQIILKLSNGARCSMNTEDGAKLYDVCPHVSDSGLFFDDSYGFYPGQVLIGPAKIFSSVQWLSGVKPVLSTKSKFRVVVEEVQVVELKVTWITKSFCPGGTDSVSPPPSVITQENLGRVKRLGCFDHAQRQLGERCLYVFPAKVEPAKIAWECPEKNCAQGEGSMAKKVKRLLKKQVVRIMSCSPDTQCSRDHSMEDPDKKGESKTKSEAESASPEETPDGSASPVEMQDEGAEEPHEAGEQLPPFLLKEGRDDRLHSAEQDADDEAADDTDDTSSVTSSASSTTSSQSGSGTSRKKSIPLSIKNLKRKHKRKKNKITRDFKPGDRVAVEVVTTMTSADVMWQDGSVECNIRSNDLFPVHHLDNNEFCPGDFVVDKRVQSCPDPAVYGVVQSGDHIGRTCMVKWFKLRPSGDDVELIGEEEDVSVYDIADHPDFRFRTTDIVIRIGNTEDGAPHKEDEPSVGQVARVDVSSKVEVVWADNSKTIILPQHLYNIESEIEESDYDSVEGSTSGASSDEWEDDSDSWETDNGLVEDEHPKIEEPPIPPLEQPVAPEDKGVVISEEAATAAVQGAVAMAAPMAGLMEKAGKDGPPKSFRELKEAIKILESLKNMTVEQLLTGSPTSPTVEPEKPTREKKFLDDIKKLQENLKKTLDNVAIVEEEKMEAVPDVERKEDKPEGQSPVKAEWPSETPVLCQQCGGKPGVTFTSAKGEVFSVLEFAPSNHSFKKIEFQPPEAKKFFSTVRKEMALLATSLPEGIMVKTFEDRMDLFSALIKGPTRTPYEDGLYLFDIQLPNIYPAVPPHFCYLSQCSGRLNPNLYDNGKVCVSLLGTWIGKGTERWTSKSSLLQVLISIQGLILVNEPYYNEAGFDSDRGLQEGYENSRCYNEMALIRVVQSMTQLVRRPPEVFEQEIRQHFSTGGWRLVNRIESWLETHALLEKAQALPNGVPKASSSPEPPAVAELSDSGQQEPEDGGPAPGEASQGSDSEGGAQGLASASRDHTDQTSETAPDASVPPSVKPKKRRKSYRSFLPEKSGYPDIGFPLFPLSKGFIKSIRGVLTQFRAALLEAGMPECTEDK
UniProt O75444: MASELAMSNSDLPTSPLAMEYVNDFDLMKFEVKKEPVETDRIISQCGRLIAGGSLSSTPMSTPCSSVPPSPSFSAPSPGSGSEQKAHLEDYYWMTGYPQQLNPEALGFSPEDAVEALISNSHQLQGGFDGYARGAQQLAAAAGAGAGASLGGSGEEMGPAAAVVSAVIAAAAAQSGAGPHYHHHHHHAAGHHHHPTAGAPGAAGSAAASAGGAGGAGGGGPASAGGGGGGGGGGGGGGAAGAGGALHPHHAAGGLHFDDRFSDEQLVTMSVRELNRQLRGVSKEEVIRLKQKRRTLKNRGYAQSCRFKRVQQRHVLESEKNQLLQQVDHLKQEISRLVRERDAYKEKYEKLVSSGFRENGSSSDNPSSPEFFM

Target: Myc-tagged UBE2O (UniProt Q9C0C9)
Test: co-IP; HA-c-Maf and Myc-UBE2O co-transfected into HEK293T for 48 h; lysates precipitated with anti-HA or anti-Myc antibody, protein A+G agarose, 4 °C, immunoblotting

binding: binds
Substance: HA-tagged c-Maf (from UniProt O75444 1-373)
